The source of these data is PMC2859746.

Assay [1] has as its target T1, GST-RB, large pocket of pRB (amino acids 379 to 928), wild type (human) (UniProt P06400).
T1 sequence: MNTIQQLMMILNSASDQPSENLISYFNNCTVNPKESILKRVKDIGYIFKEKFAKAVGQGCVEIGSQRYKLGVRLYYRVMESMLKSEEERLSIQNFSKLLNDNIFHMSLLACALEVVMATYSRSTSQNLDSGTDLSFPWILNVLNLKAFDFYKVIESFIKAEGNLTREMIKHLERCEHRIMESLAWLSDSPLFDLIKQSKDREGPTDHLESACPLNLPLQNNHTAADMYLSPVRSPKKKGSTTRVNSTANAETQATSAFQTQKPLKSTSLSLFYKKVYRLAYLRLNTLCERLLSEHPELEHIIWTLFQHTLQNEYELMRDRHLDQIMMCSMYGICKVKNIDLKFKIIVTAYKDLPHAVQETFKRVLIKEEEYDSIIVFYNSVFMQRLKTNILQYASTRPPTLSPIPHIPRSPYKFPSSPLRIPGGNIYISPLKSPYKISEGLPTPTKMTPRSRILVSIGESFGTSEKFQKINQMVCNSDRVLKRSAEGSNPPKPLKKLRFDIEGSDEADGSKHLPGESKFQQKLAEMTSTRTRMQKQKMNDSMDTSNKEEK
The assay can be described thus: pull-down; recombinant GST-RB proteins incubated with whole-cell extracts from C33A cells transfected with CMV-HA-E2F3 and CMV-HA-DP1, or CMV-TAg; bound proteins detected by western blotting (12CA5 or PAb419); only the target purified.

For assay [2], the target named is Simian virus 40 TAg (CMV-TAg) (Simian virus 40). The assay is described as follows: co-IP; C33A cells co-transfected with CMV-RB constructs and CMV-TAg or CMV-HA-E2F3 and CMV-HA-DP1; precipitation with PAb419 (TAg) or 12CA5 (HA); bound pRB detected by western blotting with G3-245. A general note: In western blotting, separated proteins are transferred to a membrane and probed.

Results are given in words; binding and its absence hold for the method and conditions named. Binding seen in cells or lysates may run through a third protein. A result given as binding can be weak or reduced; the word gives no strength. For some assays here: Tags and fused reporters may be left off the sequences shown.

With Simian virus 40 TAg (CMV-TAg), the binding entry in assay [1] was “binds”.

B1: retinoblastoma protein (pRB), full-length wild type (CMV-RB) (protein, UniProt P06400 1-928)
chain: MPPKTPRKTAATAAAAAAEPPAPPPPPPPEEDPEQDSGPEDLPLVRLEFEETEEPDFTALCQKLKIPDHVRERAWLTWEKVSSVDGVLGGYIQKKKELWGICIFIAAVDLDEMSFTFTELQKNIEISVHKFFNLLKEIDTSTKVDNAMSRLLKKYDVLFALFSKLERTCELIYLTQPSSSISTEINSALVLKVSWITFLLAKGEVLQMEDDLVISFQLMLCVLDYFIKLSPPMLLKEPYKTAVIPINGSPRTPRRGQNRSARIAKQLENDTRIIEVLCKEHECNIDEVKNVYFKNFIPFMNSLGLVTSNGLPEVENLSKRYEEIYLKNKDLDARLFLDHDKTLQTDSIDSFETQRTPRKSNLDEEVNVIPPHTPVRTVMNTIQQLMMILNSASDQPSENLISYFNNCTVNPKESILKRVKDIGYIFKEKFAKAVGQGCVEIGSQRYKLGVRLYYRVMESMLKSEEERLSIQNFSKLLNDNIFHMSLLACALEVVMATYSRSTSQNLDSGTDLSFPWILNVLNLKAFDFYKVIESFIKAEGNLTREMIKHLERCEHRIMESLAWLSDSPLFDLIKQSKDREGPTDHLESACPLNLPLQNNHTAADMYLSPVRSPKKKGSTTRVNSTANAETQATSAFQTQKPLKSTSLSLFYKKVYRLAYLRLNTLCERLLSEHPELEHIIWTLFQHTLQNEYELMRDRHLDQIMMCSMYGICKVKNIDLKFKIIVTAYKDLPHAVQETFKRVLIKEEEYDSIIVFYNSVFMQRLKTNILQYASTRPPTLSPIPHIPRSPYKFPSSPLRIPGGNIYISPLKSPYKISEGLPTPTKMTPRSRILVSIGESFGTSEKFQKINQMVCNSDRVLKRSAEGSNPPKPLKKLRFDIEGSDEADGSKHLPGESKFQQKLAEMTSTRTRMQKQKMNDSMDTSNKEEK
Take B1: the binding result in assay [2] was “binds”.
